± gives the standard deviation. This is a selection; strong and weak results do not stand in their true shares. The uncertainty is large for many entries.
Columns and labels:
[1] = test system: MILI (PIWIL2) piRISC loaded with piRNA #1 (26 nt); experiment: pre-steady-state target cleavage rate (min^-1); higher = faster piRNA-guided slicing of the target; details: guide: piRNA #1 5'p-UGAGGUAGUAGGUUGUAUAGUAUCCA; auxiliary factor: 500 nM mouse GTSF1
In short: (§1)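 Reactions were run for 0–8 or 0–960 min at 33 °C in HEPES–potassium acetate buffer, combining 1 nM active affinity-purified piRISC with one synthetic guide, […] transcribed, DNA-blocked target RNA library and, in some cases, 500 nM GTSF1 partner protein. Sequencing of uncleaved targets followed, with normalisation to depth and to weakly complementary targets. Three trials were pooled, k3 was capped at 0.0001 min^-1, and the pre-steady-state cleavage rate was taken from a burst-and-steady-state fit.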

[2] = test system: MIWI (PIWIL1) piRISC loaded with piRNA #1 (30 nt); experiment: as above; details: guide: piRNA #1 5'p-UGAGGUAGUAGGUUGUAUAGUAUCCAGAGG; auxiliary factor: 500 nM mouse GTSF1
In short: as §1

[3] = test system: EfPiwi piRISC loaded with piRNA #1 (26 nt); experiment: pre-steady-state target cleavage rate (min^-1); guide: piRNA #1 5'p-UGAGGUAGUAGGUUGUAUAGUAUCCA; MIWI and MILI are mouse PIWI proteins and EfPiwi is from a freshwater sponge; tags in brackets are library labels; higher = faster piRNA-guided slicing of the target; details: auxiliary factor: 500 nM Ephydatia muelleri Gtsf1
In short: as §1

| Sequence | pre-steady-state target cleavage rate [1] | pre-steady-state target cleavage rate [2] | pre-steady-state target cleavage rate [3] |
| --- | --- | --- | --- |
| GGAGACCUAUCUAUACAAACCUACUACCUCA | 0.00125 ± 0.0054 | 0.000247 ± 0.012 | 0.00214 ± 0.0035 |
| GGAGACCUAUGAUAUGUUGGUACAUCCUCA | 0.000473 ± 0.011 | 0.000596 ± 0.0075 | 0.000134 ± 0.014 |
| GGAGACCUAUGAUAUGUUGCUUCUACCACA | 0.000338 ± 0.019 | 0.000446 ± 0.013 | 0.000227 ± 0.0087 |
| GGAGACCUAACUAUACAACCACUACCUCA | 0.00068 ± 0.018 | 0.000459 ± 0.018 | 0.00546 ± 0.0044 |
| GGAGACCUAUGAUAUGUUGGUAGCUACCUCA | 0.000281 ± 0.019 | 0.000431 ± 0.0073 | 0.000356 ± 0.015 |
| GGAGACCUAUGUAUACUAACCUACUACCUCA | 0.000831 ± 0.0067 | 0.000159 ± 0.019 | 0.000865 ± 0.0066 |
| GGAGACCUAUGAUUAGUACCUACUACCUCA | 0.000651 ± 0.0068 | 0.000533 ± 0.0078 | 0.00197 ± 0.0049 |
| GGAGACGAUACUAUACAACCUACUACCUCG [g2:g24:cont:t1G] | 0.183 ± 0.014 | 1.1 ± 0.063 | 0.115 ± 0.037 |
| GGAGACCUAUGAUAUGUUGGUCUACCUCA | 0.000307 ± 0.015 | 0.000379 ± 0.011 | 0.00101 ± 0.0053 |
| GGAGACCUAUGAUUUCAACCAACUACCUCA | 0.00184 ± 0.0036 | 0.000335 ± 0.0076 | 0.000395 ± 0.0069 |
| GGAGACCUAUGAUAUGUUGCUAGUUCCUCA | 0.00054 ± 0.011 | 0.00042 ± 0.012 | 0.000445 ± 0.0074 |
| GGAGACCUAUGAUUACAACCUACAACCUGA | 0.00182 ± 0.0039 | 0.000184 ± 0.01 | 0.000849 ± 0.0082 |
| GGAGACCUAUGAUAUGUACCUAGUACGUCA | 0.000728 ± 0.0081 | 0.000962 ± 0.0058 | 0.000167 ± 0.012 |
| GGAGACCUAUCUAUACUAACCUACUACCUCA | 0.000617 ± 0.0094 | 0.000502 ± 0.0093 | 0.000992 ± 0.0052 |
| GGAGACCUAUGAUUACACCCUACUACCUCA | 0.00215 ± 0.0029 | 0.00219 ± 0.0038 | 0.00142 ± 0.0044 |
| GGAGACCUUACUAUACAAACCUACUACCUCA | 0.00111 ± 0.0058 | 0.000196 ± 0.013 | 0.0103 ± 0.0047 |
| GGAGACCUAUGAUAUCAUCCUACUACCUGA | 0.000739 ± 0.0048 | 0.000192 ± 0.01 | 0.000219 ± 0.01 |
| GGAGACCUAUGAUAUGUUGCUACUACCUCA [g2:g11:cont:t1A] | 0.000384 ± 0.0091 | 0.000868 ± 0.0054 | 0.000904 ± 0.0022 |
| GGAGACCUAUGAUAUGAUCGUACUACCUCA | 0.000395 ± 0.012 | 0.000568 ± 0.01 | 0.00188 ± 0.0046 |
| GGAGACCUAUGAUUACAACCUACUUCCUGA | 0.00134 ± 0.0048 | 0.000238 ± 0.0077 | 0.000735 ± 0.0077 |
| GGAGACCUAUGAUAUCAACCAUCUACCUCA | 0.000896 ± 0.0055 | 0.000164 ± 0.013 | 0.00019 ± 0.014 |
| GGAGACCUAUGAUAACAACCUAUUACCUCA | 0.00248 ± 0.0027 | 0.000676 ± 0.0056 | 0.000222 ± 0.013 |
| GGAGACCUAUGAUAUGUUGGUACUACCUACA | 0.000533 ± 0.011 | 0.000399 ± 0.011 | 0.000708 ± 0.0076 |
| GGAGACCUAUGAUAUGUUGCUACUACCUGA | 0.000315 ± 0.012 | 0.000344 ± 0.0087 | 0.000453 ± 0.0058 |

In another format: results already given.
Sequence | pre-steady-state target cleavage rate [1] | pre-steady-state target cleavage rate [2] | pre-steady-state target cleavage rate [3]
GGAGACCUAUGAUAUGUUGCUUCUACCACA | 0.000338 ± 0.019 | 0.000446 ± 0.013 | 0.000227 ± 0.0087
GGAGACCUAUGUAUACUAACCUACUACCUCA | 0.000831 ± 0.0067 | 0.000159 ± 0.019 | 0.000865 ± 0.0066

Source: the supplement of paper PMC10338343
